According to patent publication US8247596B2 (Sumitomo Chemical Company, Limited, priority 2007, dated 2012):
Some of these results come from one statement about several compounds together.

What was measured:
brown rice planthopper [1] = experiment: Test Example 1: spray on rice plants against brown rice planthopper; type: in vivo, Nilaparvata lugens; settings: 500 ppm, 20 ml/cup sprayed on rice plants; 30 first-instar larvae released; 6 days at 25° C.
cotton aphids = experiment: Test Example 3: spray on cucumber against cotton aphids; type: in vivo, Aphis gossypii; settings: 500 ppm, 20 ml/cup sprayed on cucumber with about 20 cotton aphids; six days after spraying
brown rice planthopper [2] = experiment: Test Example 2: rice plants absorb test solution from bottom of cup, brown rice planthopper; type: in vivo, Nilaparvata lugens; settings: 55.6 ppm, 45 ml absorbed from the bottom of the cup; 30 first-instar larvae released 6 days after treatment; left for 6 days at 25° C.

COC(=O)C(F)(C1CCC(F)(F)CC1)S(=O)(=O)CCC(F)(F)F (stereo not drawn) [present compound (12), methyl 2-(4,4-difluorocyclohexyl)-2-fluoro-2-(3,3,3-trifluoropropylsulfonyl)acetate]
≤ 3: number of the parasitic pests (brown rice planthoppers on the rice plants) (brown rice planthopper [1]) | number of the parasitic pests (cotton aphids on cucumber) (cotton aphids) | number of the parasitic pests (brown rice planthoppers on the rice plants) (brown rice planthopper [2])

CC1(C)CCC(C(C#N)S(=O)(=O)CCC(F)(F)F)CC1 (stereo not drawn) [present compound (50), 2-(4,4-dimethylcyclohexyl)-2-(3,3,3-trifluoropropylsulfonyl)acetonitrile]
≤ 3: number of the parasitic pests (brown rice planthoppers on the rice plants) (brown rice planthopper [1]) | number of the parasitic pests (cotton aphids on cucumber) (cotton aphids) | number of the parasitic pests (brown rice planthoppers on the rice plants) (brown rice planthopper [2])

C#CC1(O)CCC(C(C#N)S(=O)(=O)CCC(F)(F)F)CC1 (stereo not drawn) [present compound (30), 2-(4-ethynyl-4-hydroxycyclohexyl)-2-(3,3,3-trifluoropropylsulfonyl)acetonitrile]
≤ 3: number of the parasitic pests (brown rice planthoppers on the rice plants) (brown rice planthopper [1]) | number of the parasitic pests (cotton aphids on cucumber) (cotton aphids) | number of the parasitic pests (brown rice planthoppers on the rice plants) (brown rice planthopper [2])
